Laboratory results published in publication PMC3784504.

Amino acid sequences for entries named in this document (tags omitted).
UniProt P23696: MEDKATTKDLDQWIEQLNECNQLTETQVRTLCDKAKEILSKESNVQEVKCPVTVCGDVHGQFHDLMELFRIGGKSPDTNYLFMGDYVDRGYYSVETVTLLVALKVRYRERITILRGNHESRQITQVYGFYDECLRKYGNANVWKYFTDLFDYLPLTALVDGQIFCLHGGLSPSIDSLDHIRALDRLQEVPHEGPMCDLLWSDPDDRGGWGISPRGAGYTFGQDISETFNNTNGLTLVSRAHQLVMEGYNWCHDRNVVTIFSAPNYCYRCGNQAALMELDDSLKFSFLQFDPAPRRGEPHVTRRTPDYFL
UniProt Q9VMJ7: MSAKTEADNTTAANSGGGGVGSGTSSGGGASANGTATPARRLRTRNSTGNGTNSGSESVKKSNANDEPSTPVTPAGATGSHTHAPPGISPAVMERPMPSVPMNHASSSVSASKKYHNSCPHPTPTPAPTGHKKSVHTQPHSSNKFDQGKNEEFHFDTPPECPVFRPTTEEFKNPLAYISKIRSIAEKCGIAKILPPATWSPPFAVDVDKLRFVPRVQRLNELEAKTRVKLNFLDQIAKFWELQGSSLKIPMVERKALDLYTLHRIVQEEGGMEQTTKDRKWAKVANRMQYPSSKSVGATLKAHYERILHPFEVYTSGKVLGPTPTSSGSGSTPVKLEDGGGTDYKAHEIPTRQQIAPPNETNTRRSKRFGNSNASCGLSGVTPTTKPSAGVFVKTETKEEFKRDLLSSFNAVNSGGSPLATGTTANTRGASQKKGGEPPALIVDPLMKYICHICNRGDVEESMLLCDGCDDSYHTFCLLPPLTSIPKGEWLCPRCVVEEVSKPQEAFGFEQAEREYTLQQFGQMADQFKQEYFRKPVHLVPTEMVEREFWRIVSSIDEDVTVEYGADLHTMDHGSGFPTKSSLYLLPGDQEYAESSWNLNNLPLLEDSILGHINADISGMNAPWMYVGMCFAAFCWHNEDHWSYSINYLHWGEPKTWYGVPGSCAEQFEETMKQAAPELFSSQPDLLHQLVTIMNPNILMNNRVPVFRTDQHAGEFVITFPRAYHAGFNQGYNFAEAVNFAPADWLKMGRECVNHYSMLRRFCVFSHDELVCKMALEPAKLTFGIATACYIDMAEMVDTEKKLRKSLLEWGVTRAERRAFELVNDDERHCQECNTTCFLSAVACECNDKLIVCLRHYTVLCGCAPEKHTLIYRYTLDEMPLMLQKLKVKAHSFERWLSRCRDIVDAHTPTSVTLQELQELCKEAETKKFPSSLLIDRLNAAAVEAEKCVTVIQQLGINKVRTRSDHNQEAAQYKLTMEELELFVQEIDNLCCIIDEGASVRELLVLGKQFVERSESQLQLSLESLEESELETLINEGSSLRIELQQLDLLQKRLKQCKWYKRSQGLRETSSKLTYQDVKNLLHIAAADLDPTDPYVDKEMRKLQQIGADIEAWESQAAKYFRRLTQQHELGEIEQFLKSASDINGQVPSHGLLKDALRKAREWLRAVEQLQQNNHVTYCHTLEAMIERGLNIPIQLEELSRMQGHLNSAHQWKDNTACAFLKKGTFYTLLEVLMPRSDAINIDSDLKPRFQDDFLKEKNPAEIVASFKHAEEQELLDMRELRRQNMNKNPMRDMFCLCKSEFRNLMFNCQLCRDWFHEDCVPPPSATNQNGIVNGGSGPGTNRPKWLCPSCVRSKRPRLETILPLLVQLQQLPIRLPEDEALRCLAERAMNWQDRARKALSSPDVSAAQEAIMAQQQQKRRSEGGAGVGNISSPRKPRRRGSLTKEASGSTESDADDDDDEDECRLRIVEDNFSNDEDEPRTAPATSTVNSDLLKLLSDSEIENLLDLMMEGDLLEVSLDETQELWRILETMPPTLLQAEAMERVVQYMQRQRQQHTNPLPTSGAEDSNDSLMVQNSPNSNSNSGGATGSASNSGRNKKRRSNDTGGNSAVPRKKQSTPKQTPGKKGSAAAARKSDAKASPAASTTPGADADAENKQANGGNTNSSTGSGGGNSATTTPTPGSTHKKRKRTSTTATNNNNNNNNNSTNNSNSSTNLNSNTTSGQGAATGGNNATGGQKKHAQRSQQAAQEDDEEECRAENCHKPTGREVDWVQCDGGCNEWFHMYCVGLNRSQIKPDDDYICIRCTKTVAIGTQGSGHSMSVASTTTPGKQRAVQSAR
UniProt Q7PLI2: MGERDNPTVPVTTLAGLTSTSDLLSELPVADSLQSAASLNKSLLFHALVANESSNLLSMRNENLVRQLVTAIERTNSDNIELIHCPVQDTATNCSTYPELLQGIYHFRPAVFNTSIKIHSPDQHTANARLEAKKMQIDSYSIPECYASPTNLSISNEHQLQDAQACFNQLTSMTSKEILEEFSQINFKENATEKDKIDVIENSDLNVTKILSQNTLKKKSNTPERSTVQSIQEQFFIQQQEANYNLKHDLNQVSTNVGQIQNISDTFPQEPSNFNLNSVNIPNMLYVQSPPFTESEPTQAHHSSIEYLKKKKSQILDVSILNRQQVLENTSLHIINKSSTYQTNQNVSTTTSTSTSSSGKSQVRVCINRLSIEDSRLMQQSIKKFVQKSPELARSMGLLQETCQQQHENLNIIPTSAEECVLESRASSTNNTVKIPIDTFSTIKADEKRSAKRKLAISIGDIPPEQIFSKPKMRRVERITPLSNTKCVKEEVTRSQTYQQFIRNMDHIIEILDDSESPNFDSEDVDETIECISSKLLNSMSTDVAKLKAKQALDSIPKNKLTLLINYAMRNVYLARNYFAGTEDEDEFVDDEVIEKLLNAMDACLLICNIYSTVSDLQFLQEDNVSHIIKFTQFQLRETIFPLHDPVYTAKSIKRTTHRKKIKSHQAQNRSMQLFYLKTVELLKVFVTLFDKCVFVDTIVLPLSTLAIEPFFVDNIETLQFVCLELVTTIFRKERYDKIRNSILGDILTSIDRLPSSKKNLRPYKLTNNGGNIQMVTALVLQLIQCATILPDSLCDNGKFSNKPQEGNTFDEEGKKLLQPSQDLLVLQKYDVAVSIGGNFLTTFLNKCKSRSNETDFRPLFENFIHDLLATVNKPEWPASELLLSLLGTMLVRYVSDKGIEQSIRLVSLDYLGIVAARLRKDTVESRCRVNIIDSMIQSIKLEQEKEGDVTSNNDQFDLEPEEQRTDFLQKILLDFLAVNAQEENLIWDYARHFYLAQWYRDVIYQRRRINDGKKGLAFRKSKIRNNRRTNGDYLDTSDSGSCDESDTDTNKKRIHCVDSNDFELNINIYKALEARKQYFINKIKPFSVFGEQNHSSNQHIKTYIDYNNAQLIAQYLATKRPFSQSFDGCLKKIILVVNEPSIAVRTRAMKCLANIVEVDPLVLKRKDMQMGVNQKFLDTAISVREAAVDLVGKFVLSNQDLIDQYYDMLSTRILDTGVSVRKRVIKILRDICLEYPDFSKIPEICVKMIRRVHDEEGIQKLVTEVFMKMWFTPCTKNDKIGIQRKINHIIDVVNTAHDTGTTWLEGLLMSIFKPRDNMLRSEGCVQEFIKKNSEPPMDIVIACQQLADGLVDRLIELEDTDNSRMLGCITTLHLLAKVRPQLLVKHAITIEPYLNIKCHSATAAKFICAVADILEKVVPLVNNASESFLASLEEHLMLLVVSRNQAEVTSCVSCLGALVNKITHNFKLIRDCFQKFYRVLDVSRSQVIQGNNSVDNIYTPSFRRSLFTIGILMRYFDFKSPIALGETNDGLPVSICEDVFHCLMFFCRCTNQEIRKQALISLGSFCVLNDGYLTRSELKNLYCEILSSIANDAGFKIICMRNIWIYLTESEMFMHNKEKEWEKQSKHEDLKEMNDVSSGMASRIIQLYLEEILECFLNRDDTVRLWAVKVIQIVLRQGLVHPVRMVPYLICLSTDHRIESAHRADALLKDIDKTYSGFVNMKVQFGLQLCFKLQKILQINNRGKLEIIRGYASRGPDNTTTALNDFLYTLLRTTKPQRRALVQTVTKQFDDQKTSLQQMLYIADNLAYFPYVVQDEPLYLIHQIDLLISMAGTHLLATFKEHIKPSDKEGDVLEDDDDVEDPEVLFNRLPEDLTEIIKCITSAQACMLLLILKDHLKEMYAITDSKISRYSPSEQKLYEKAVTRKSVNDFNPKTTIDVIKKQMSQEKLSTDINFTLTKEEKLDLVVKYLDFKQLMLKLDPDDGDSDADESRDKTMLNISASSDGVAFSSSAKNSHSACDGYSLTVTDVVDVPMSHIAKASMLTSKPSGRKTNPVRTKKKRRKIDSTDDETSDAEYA
UniProt Q94517: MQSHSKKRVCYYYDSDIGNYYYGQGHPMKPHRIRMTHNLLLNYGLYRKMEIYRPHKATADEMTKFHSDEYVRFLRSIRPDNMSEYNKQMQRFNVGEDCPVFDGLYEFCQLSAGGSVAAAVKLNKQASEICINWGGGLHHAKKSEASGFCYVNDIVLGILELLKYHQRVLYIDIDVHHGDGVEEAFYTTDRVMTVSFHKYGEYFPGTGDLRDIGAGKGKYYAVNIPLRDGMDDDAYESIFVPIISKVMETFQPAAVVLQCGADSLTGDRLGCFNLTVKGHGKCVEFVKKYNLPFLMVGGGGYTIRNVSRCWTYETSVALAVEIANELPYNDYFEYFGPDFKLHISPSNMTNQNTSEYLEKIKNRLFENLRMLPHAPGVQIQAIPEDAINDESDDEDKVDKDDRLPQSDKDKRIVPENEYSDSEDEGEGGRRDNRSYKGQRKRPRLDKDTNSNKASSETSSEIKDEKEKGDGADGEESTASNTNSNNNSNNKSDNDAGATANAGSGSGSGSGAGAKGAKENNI

What was measured:
Test in all cases: affinity purification with mass spectrometry; NAP1, SA, SMC1 or PP2A (catalytic subunit) immunopurified from 0-12 hour Drosophila embryo nuclear extract (NAP1 and SA also from S2 cells) with antibodies cross-linked to protein A sepharose; washes with HEMG, 600 mM KCl, 0.1% NP-40; SDS-PAGE, mass spectrometry
[1] = molecular target: T1, histone chaperone NAP1 (Drosophila (endogenous in embryos and S2 cells)) (UniProt Q9W1G7)
T1 sequence: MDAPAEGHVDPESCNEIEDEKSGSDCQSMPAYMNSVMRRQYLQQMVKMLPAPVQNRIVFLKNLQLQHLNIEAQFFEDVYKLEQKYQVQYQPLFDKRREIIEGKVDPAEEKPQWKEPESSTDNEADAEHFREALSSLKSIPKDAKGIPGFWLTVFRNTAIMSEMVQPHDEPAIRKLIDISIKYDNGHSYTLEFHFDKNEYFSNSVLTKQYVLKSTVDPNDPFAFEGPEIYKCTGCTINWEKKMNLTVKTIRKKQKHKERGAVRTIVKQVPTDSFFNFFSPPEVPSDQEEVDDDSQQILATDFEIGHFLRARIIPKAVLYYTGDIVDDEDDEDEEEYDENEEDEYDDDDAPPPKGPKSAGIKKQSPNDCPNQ

[2] = molecular target: T2, cohesin subunit SMC1 (Drosophila (endogenous in embryos and S2 cells)) (UniProt Q9VCD8)
T2 sequence: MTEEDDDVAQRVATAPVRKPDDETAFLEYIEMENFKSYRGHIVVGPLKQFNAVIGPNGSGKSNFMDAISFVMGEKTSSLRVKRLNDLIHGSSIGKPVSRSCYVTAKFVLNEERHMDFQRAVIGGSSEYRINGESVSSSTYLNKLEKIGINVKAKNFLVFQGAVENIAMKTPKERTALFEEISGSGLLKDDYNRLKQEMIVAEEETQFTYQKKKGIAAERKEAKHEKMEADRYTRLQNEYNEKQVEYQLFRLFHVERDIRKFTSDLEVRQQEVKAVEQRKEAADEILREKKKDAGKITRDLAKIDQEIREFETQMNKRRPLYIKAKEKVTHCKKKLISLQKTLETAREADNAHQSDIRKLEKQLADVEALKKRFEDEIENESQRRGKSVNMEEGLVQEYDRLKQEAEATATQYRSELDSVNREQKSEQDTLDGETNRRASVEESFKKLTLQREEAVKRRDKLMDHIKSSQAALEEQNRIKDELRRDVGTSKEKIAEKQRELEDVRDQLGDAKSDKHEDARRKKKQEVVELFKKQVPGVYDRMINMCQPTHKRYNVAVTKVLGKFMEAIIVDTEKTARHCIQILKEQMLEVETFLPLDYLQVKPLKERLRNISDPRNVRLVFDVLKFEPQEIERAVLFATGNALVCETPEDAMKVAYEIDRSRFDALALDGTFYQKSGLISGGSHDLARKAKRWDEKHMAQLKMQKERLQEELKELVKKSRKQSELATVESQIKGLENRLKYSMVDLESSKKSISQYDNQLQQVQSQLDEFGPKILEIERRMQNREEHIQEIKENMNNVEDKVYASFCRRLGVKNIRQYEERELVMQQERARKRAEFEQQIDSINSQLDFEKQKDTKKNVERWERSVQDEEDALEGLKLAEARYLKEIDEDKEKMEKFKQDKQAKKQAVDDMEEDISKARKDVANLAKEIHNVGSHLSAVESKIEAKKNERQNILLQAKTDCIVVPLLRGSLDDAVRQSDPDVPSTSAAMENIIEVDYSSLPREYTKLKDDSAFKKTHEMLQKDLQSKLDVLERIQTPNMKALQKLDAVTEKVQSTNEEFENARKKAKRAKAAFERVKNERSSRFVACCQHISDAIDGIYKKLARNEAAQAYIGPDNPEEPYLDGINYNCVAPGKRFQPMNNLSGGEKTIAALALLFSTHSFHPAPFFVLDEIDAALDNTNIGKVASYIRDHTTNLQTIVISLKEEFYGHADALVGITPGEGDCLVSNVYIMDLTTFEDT

[3] = molecular target: protein phosphatase 2A (PP2A) catalytic subunit (Drosophila (endogenous in embryos and S2 cells)) (UniProt P23696)

binding [1] | binding [2] | binding [3] | Substance
binds | no binding |  | EMSY (Drosophila (endogenous in embryos))
binds | no binding |  | LID (from UniProt Q9VMJ7 1-1838)
 | binds | binds | Nipped-B/SCC2 (from UniProt Q7PLI2 1-2077)
binds | no binding |  | PF1 (Drosophila (endogenous in embryos))
binds | no binding |  | RPD3 (from UniProt Q94517 1-521)
binds | no binding |  | SIN3A (Drosophila (endogenous in embryos))
binds |  |  | cohesin subunit RAD21 (Drosophila (endogenous in embryos))
binds | binds |  | cohesin subunit stromalin (SA)
 | binds |  | protein phosphatase 2A (PP2A) catalytic subunit (from UniProt P23696 1-309) (enzyme)

No constants are given. Whether binding was seen depends on the method and setting. In cells and extracts the contact can be indirect. Here binding means that the protein was enriched with, or labelled near, the bait; the list need not be complete. For some of these results: A no says only that the protein was not detected with the bait. For some of these results: Sequences can lack the tags named with a protein.
